Hit rate of the full screen: of about 330,000 compounds, about 7,700 (2.3%) were called active. The inconclusive results got no clear call from the source; some entries with a clear call stand among them for comparison. Calls follow the shape of the dose curve; as a rule, active = well fitted inhibition curve with a large enough effect; inconclusive = small, poorly fitted or top-dose-only effect, or effect the other way; inactive = flat fitted curve, though single readings scatter. Potencies of inconclusive entries are doubtful fits and often do not repeat.
Test: qHTS screen for small molecules that inhibit ELG1-dependent DNA repair in human embryonic kidney (HEK293T) cells expressing luciferase-tagged ELG1; also: nearly all actives have a fitted effect of over 55% in size
Conditions: HEK293T ELG1-luciferase reporter, luminescence, 16 h, DNA damage induced by 5-fluorouridine; activity change, negative = inhibition: at 46.1 µM (top of the series)
Summary of the method: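 Step one: seed 2,000 cells per well. Step two: pin-transfer compound or DMSO alongside 5-fluorouridine. Step three: incubate 16 hr, 37 °C, 5% CO2. Step four: add ONE-Glo, wait 30 min, read luminescence.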
% is scaled to controls: 0 for no effect and ±100 for the full control effect; potency is read from the fitted curve at half-maximal effect.

SMILES | Potency | activity change, negative = inhibition
CCOc1ccc2cc(C3CC(c4ccco4)=NN3S(C)(=O)=O)c(Cl)nc2c1 (centres undefined) | inconclusive: 16.4 µM [inhibitor, single point] | –
COc1ccccc1N1N=C(c2ccc([N+](=O)[O-])cc2)CC1c1ccccc1 (centres undefined) | – | inactive: 3.1%
COc1ccc(NC(=O)CSc2nc3ccccc3c(=O)n2CCCC(=O)NCC2CCCO2)c(OC)c1 (centres undefined) | inconclusive: 13 µM [inhibitor, partial curve, poor fit] | –
Cc1ccc2c(-c3ccc([N+](=O)[O-])cc3)cc(=O)[nH]c2c1 | inconclusive: 1.03 µM [inhibitor, full curve] | –
O=C(O)CSc1nc2c(c(C(F)(F)F)n1)CCCC2 | inconclusive: 29.1 µM [activator, single point] | –
Cc1cc(C)c(S(=O)(=O)c2ccccc2Cl)c(=O)[nH]1 | – | inactive: 0.858%
Cc1nnc(NC(=O)CSc2nccn2-c2cccc(C)c2C)s1 | inconclusive: 3.66 µM [inhibitor, full curve, poor fit] | –
Cc1ccccc1CN(c1ccc(C(=O)Nc2ccccc2C(=O)NCc2ccco2)cc1)S(C)(=O)=O | active: 7.31 µM | –
COCCn1cnc2c1c(=O)n(CC(=O)NCC(F)(F)F)c(=O)n2Cc1ccccc1 | – | inactive: -1.34%
CCOc1ccc(CC2NCCc3cc(OCC)c(OCC)cc32)cc1OCC (centres undefined) | active: 14.6 µM | –
COc1cc2c(cc1OC)C(c1cccs1)N(C(=O)c1cccnc1)CC2 (centres undefined) | – | inactive: 10.3%
CCCCS(=O)(=O)Nc1ccc2c(c1)ncn2C1CCCCC1 | – | inactive: -5.45%
CN(C)C(=S)NCc1ccccc1 | – | inactive: -1%
COCCN(C(=O)CSc1nnc(-c2cccs2)n1N)c1c(N)n(Cc2ccccc2)c(=O)[nH]c1=O | – | inactive: 0.481%
Cc1csc2nc(CSc3ccc(Cl)cc3)cn12 | inconclusive: 5.8 µM [activator, partial curve] | –
CCNC(=O)NC(=O)CSc1ccccc1F | – | inactive: -0.353%
Cc1nc(SCc2c(F)cccc2Cl)n[nH]1 | inconclusive: 18.4 µM [activator, single point] | –
CCOC(=O)C(CCC(C)=O)C(=O)c1ccccc1 (centres undefined) | inconclusive: 25.9 µM [activator, partial curve, poor fit] | –
O=C(Cn1ncc(Cl)c(Cl)c1=O)c1ccc2c(c1)OCCO2 | inconclusive: 29.1 µM [inhibitor, single point] | –
CCCCC(CC)C(=O)Nc1ncc([N+](=O)[O-])s1 (centres undefined) | – | inactive: 18.2%
CCC1CCc2c(sc(NC(=O)c3ccoc3C)c2C(N)=O)C1 (centres undefined) | inconclusive: 18.4 µM [inhibitor, single point] | –
CCN(CC)c1ccc(/C=N/Nc2nc3ccccc3[nH]2)cc1 | inconclusive: 4.11 µM [activator, single point] | –
COc1ccc2nc3sc(C(=O)NCc4cccs4)c(N)c3cc2c1 | inconclusive: 1.46 µM [activator, full curve] | –
CC/C(=C(/CC)c1ccc(O)cc1)c1ccc(O)cc1 | inconclusive: 23.1 µM [inhibitor, partial curve, poor fit] | –
Cc1ccc(NS(=O)(=O)c2cc(NC(=O)c3ccc4c(c3)NC(=O)CS4)ccc2C)c(C)c1 | active: 18.3 µM | –

In another format: entries from further up.
CCN(CC)c1ccc(/C=N/Nc2nc3ccccc3[nH]2)cc1
  Potency: inconclusive: 4.11 µM [activator, single point]
COc1ccc2nc3sc(C(=O)NCc4cccs4)c(N)c3cc2c1
  Potency: inconclusive: 1.46 µM [activator, full curve]
CC/C(=C(/CC)c1ccc(O)cc1)c1ccc(O)cc1
  Potency: inconclusive: 23.1 µM [inhibitor, partial curve, poor fit]

Next results:

SMILES | Potency | activity change, negative = inhibition
CC1CCCCN1S(=O)(=O)c1ccc(NC(=O)c2cccc(-n3cnnn3)c2)cc1 (centres undefined) | inconclusive: 29.1 µM [inhibitor, single point] | –
Cc1cc(C(=O)Nc2ccccn2)no1 | inconclusive: 10.3 µM [activator, partial curve] | –
Cc1nn(-c2ccccc2)c(C)c1/C=C1\C(=O)N(C)C(=S)N1C | inconclusive: 0.0164 µM [activator, full curve, poor fit] | –
Cc1nn2c(N)c(C#N)cnc2c1-c1ccc(Cl)cc1 | inconclusive: 6.51 µM [activator, single point] | –
Cc1cccc(C2c3[nH]c4ccccc4c3CCN2C(=O)c2ocnc2C)n1 (centres undefined) | – | inactive: -15.6%
CCCCC[C@H]1CN(CCCC)C(=O)[C@@H]1CC(=O)NCc1ccc(OC)cc1 | – | inactive: -4.94%
CS(=O)(=O)Nc1ccccc1C(=O)NCCSc1ccc(Cl)cc1 | inconclusive: 20.6 µM [inhibitor, single point] | –
CSc1ccc2c(c1)N(CCC1CCCCN1C)c1ccccc1S2 (centres undefined) | inconclusive: 23.1 µM [inhibitor, single point] | –
COc1ccc(-n2nc(C#N)c(Cl)cc2=O)cc1 | inconclusive: 25.9 µM [inhibitor, single point] | –
CC(=O)Nc1ccc(NC(=O)C(C)OC(=O)c2c(C)nn(-c3ccccc3)c2Cl)cc1 (centres undefined) | inconclusive: 3.66 µM [inhibitor, single point] | –
O=C(CSc1n[nH]c(=O)[nH]c1=O)N/N=C/C=C\c1ccccc1 | inconclusive: 6.51 µM [activator, single point] | –
O=C(CCCN1C(=O)/C(=C/c2ccccc2Cl)SC1=S)NNC(=O)c1ccc(Cl)cc1 | – | inactive: 22%
Cc1ccc(/C=C/C(=O)NCc2cccs2)cc1 | inconclusive: 18.4 µM [activator, partial curve] | –
CN(C)c1cccc(C(=O)OCC(=O)c2ccc[nH]2)c1 | inconclusive: 7.3 µM [activator, partial curve] | –
CCOc1ccc(C(=S)N2CCN(C)CC2)cc1 | – | inactive: 16.6%
COCC(C)n1c(C)cc(C(=O)CSc2ncccn2)c1C (centres undefined) | inconclusive: 18.3 µM [activator, partial curve] | –
Cc1ccc(NC(C#N)c2ccccc2OCc2ccccc2)cc1 (centres undefined) | – | inactive: 10.5%
CCOc1ccc(-n2c(-c3ccccc3)c[n+]3c2CCC3)cc1 | inconclusive: 1.16 µM [inhibitor, full curve] | –
CCOC(=O)N1CCN(C(=O)c2c(O)c3cccc4c3n(c2=O)CC4)CC1 | – | inactive: 5.35%
CCOC(=O)c1c(NC(C)=O)sc2c1CCN(Cc1ccccc1)C2 | – | inactive: 3.09%
Cn1nc(C(=O)N2CCN(c3ccc(Cl)cc3)CC2)c2c1-c1ccccc1S(=O)(=O)C2 | inconclusive: 32.6 µM [inhibitor, single point] | –
Cc1ccc(NC(=O)Cc2ccccc2)c(C)c1 | – | inactive: 21.8%
CCOC(=O)N1CCN(Cc2nc3cc(NC(=O)c4ccco4)ccc3n2C)CC1 | – | inactive: 20.3%
O=C(O)c1ccc(-c2ccccn2)s1 | inconclusive: 20.6 µM [activator, partial curve] | –
O=C1c2ccccc2C(=O)N1CCCC(=O)N1CCc2ccccc21 | inconclusive: 0.58 µM [activator, full curve, poor fit] | –

SMILES | Potency | activity change, negative = inhibition
CCN1CCN(c2ccc(NC(=O)Cc3ccccc3)cc2)CC1 | inconclusive: 29.1 µM [activator, single point] | –
CCC(CC)C(=O)Oc1c(Sc2ccccc2[N+](=O)[O-])c(C)nn1C(C)(C)C | – | inactive: 0.594%
Cc1c(N=NC2=C(O)CC(C)(C)CC2=O)cc2c(c1[N+](=O)[O-])C(C)(C)CC2(C)C | inconclusive: 18.3 µM [inhibitor, partial curve, poor fit] | –
COc1ccccc1N(CCOc1ccccc1)S(=O)(=O)c1ccccc1 | – | inactive: -19.8%
N/C(=N\OC(=O)c1ccccc1Cl)c1cccnc1 | inconclusive: 7.31 µM [activator, partial curve] | –
COc1ccc(OCc2cc(C(=O)NC(C)Cc3cnccn3)no2)c(Cl)c1 (centres undefined) | inconclusive: 13 µM [activator, partial curve] | –
COc1ccc(N(C)S(=O)(=O)c2cccc(C(=O)Nc3ccc(N4CCOCC4)cc3)c2)cc1 | inconclusive: 23.1 µM [inhibitor, single point] | –
O=C(O)c1cccc2c(/C=N/Nc3ccccn3)c[nH]c12 | inconclusive: 13 µM [activator, partial curve] | –
COC(=O)c1ccc(OCC(O)CNC2CCCC2)cc1 (centres undefined) | – | inactive: -0.701%
COc1ccc(-c2nc(CN3CCC(C(=O)N4CCOCC4)CC3)c(C)o2)c(OC)c1 | – | inactive: -6.13%
COC(=O)C1OC(OC2CC[C@]3(C)C(CC[C@@]4(C)[C@@H]3CC=C3[C@@H]5CC(C)(C)CC[C@]5(C(=O)OC5OC(CO)C(O)C(O)C5O)CC[C@]34C)C2(C)C)C(O)C(O)C1O[C@H]1OCC(O)C(O)C1O (some centres undefined) | inconclusive: 16.4 µM [inhibitor, partial curve, poor fit] | –
Oc1ccc(N=Nc2ccc(Br)cc2)c(O)c1 | inconclusive: 3.26 µM [activator, full curve] | –
CCCN(CC(=O)Nc1ccc(Cl)cc1Cl)C(=O)/C=C/c1cccc([N+](=O)[O-])c1 | inconclusive: 23.1 µM [inhibitor, single point] | –
CCCCCn1c(=O)[nH]c2cc(C(=O)N3CCN(CC)CC3)ccc2c1=O | – | inactive: -5.69%
O=C(/C(=N/O)n1cncn1)c1ccccc1Cl | – | inactive: 0%
Cc1[nH]c2ccccc2c1N=Nc1ccccc1F | – | inactive: 3.25%
O=C(O)C1=C(C(=O)Nc2cc(C(F)(F)F)ccc2Cl)CCCC1 | – | inactive: 4.18%
O=C(OCc1cccc(C(F)(F)F)c1)c1cc(S(=O)(=O)N2CCOCC2)ccc1F | – | inactive: 29.3%
COC(=O)c1ccccc1N=Nc1c(C)[nH][nH]c1=O | inconclusive: 23.1 µM [inhibitor, single point] | –
COc1ccccc1NC(=O)Nc1ccc(Cl)c(S(=O)(=O)Nc2ccccc2OC)c1 | inconclusive: 20.6 µM [inhibitor, single point] | –
CCN(Cc1ccncc1)C(=O)c1cc(Br)cc(Br)c1O | – | inactive: -1.63%
CN(C)CCNc1ncnc2ccccc12 | – | inactive: 5.45%
COC(=O)C1=C(C)N(Cc2ccc(OC)cc2)C(=O)/C1=C\c1ccco1 | active: 18.3 µM | –
O=C(c1ccc(S(=O)(=O)N2CCc3ccccc3C2)cc1)N1CCCCC1 | inconclusive: 18.3 µM [inhibitor, single point] | –

From PubChem BioAssay AID504467 (National Center for Advancing Translational Sciences (NCATS), 2011)
